Data: patent publication US20130133090A1
These are yes or no findings as the source states them, for the method shown. Binding seen in cells or lysates may run through a third protein. Some entries that bind do so weakly or less than the wild type.

Protein sequences, listed by entry. Tags and fused reporters are not part of them. Residues count along the entry.
UniProt P12023, residues 18-770: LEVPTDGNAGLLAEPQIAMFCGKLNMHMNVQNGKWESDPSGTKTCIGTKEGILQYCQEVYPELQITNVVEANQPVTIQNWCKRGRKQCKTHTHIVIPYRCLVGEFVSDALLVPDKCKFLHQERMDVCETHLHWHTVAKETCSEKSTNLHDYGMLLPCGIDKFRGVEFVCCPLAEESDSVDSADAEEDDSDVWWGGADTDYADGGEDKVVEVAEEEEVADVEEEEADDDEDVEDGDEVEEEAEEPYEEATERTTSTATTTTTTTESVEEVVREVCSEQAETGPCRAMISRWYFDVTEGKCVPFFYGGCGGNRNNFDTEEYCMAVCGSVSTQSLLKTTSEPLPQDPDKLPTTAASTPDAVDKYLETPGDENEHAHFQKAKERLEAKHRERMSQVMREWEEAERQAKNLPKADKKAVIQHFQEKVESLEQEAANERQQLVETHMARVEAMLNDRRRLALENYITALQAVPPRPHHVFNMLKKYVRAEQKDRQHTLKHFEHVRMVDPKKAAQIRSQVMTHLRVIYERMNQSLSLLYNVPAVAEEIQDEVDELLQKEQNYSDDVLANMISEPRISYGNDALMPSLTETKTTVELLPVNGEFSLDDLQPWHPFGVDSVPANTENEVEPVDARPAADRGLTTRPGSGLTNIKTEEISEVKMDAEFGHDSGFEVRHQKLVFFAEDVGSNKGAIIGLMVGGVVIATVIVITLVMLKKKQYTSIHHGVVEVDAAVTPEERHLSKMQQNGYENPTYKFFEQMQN

Legend:
[1] = target: endogenous APP of mouse brain (mouse) (UniProt P12023); experiment: co-immunoprecipitation from mouse brain membrane extracts with αBRI2, blot for APP
[2] = target: endogenous APP of mouse brain (mouse) (UniProt P12023); experiment: co-immunoprecipitation from mouse brain lysates with αBri2, blot for APP

binding [1]: binds
binding [2]: binds
B1: mouse Bri2 protein (endogenous) (protein, UniProt O89051 1-266, looked up)
chain: MVKVTFNSALAQKEAKKDEPKSSEEALIVPPDAVAVDCKDPGDVVPVGQRRAWCWCMCFGLAFMLAGVILGGAYLYKYFALQPDDVYYCGLKYIKDDVILNEPSADAPAARYQTIEENIKIFEEDAVEFISVPVPEFADSDPANIVHDFNKKLTAYLDLNLDKCYVIPLNTSIVMPPKNLLELLINIKAGTYLPQSYLIHEHMVITDRIENVDNLGFFIYRLCHDKETYKLQRRETIRGIQKREASNCFTIRHFENKFAVETLICS
